From the supplement of paper PMC6078165
± gives the standard deviation of the averaged measurements. Values are relative to the signal before dosing, not to a vehicle control; the signal also falls without drug.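 Labels refer to human fibroblasts, largely primary: uterine (C12385, HUF), lung (H6013), bone (Hs27A), adrenal (HADF), skin (WS1), plus mammary HMF and breast cancer-associated Hs343T. Cancer lines are basal-like or mesenchymal-like triple-negative breast cancer. The paper counts as hits responses shifting over 3x the replicate standard deviation. The tissue of the other fibroblasts is not given here.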

Tested on: MDAMB436
Assay: relative JC-1 red fluorescence (viability) vs pre-drug, coculture with fibroblast (fraction); higher = more viable cancer cells
Experimental: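 JC-1 labelled TNBC cells cocultured 1:1 (1,500 cells each) with CellTrace Violet stained primary or stromal fibroblasts in 384-well plates in FluoroBrite medium, treated with one of 42 anticancer drugs at 0.1, 1, 10 or 100 uM. JC-1 red fluorescence (mitochondrial integrity in cancer cells only) was read by plate reader every 8 h for 72 h. Values are normalised to each well's pre-drug value. The stock of one drug was tenfold lower, so its dose labels may be too high.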

O=C(O)CCCc1ccc(N(CCCl)CCCl)cc1 [Chlorambucil]
relative JC-1 red fluorescence
Settings | 8 h | 16 h | 24 h | 32 h | 40 h | 48 h | 56 h | 64 h | 72 h
10 µM, coculture fibroblast: C12385 | 0.762 ± 0.021 | 0.707 ± 0.03 | 0.669 ± 0.042 | 0.582 ± 0.038 | 0.532 ± 0.034 | 0.505 ± 0.036 | 0.487 ± 0.032 | 0.472 ± 0.039 | 0.465 ± 0.038
10 µM, coculture fibroblast: H6013 | 0.779 ± 0.01 | 0.736 ± 0.032 | 0.708 ± 0.043 | 0.693 ± 0.04 | 0.673 ± 0.047 | 0.694 ± 0.051 | 0.66 ± 0.057 | 0.646 ± 0.05 | 0.614 ± 0.035
10 µM, coculture fibroblast: H6019 | 0.762 ± 0.012 | 0.708 ± 0.0075 | 0.6745 ± 0.0027 | 0.599 ± 0.016 | 0.546 ± 0.023 | 0.523 ± 0.038 | 0.497 ± 0.044 | 0.472 ± 0.043 | 0.455 ± 0.044
10 µM, coculture fibroblast: H6076 | 0.71116 ± 0.00025 | 0.614 ± 0.013 | 0.564 ± 0.016 | 0.516 ± 0.026 | 0.487 ± 0.029 | 0.466 ± 0.036 | 0.461 ± 0.037 | 0.46 ± 0.04 | 0.456 ± 0.046
10 µM, coculture fibroblast: H6231 | 0.68892 ± 0.00062 | 0.578 ± 0.039 | 0.624 ± 0.035 | 0.541 ± 0.038 | 0.545 ± 0.039 | 0.527 ± 0.034 | 0.521 ± 0.034 | 0.512 ± 0.028 | 0.503 ± 0.034
10 µM, coculture fibroblast: HADF | 0.7718 ± 0.0076 | 0.748 ± 0.023 | 0.717 ± 0.023 | 0.693 ± 0.034 | 0.682 ± 0.032 | 0.701 ± 0.035 | 0.648 ± 0.033 | 0.64 ± 0.032 | 0.604 ± 0.034
10 µM, coculture fibroblast: HCFa | 0.791 ± 0.014 | 0.781 ± 0.035 | 0.759 ± 0.045 | 0.723 ± 0.058 | 0.708 ± 0.069 | 0.723 ± 0.072 | 0.67 ± 0.079 | 0.663 ± 0.09 | 0.614 ± 0.09
10 µM, coculture fibroblast: HCPF | 0.672 ± 0.02 | 0.607 ± 0.032 | 0.581 ± 0.037 | 0.518 ± 0.048 | 0.497 ± 0.044 | 0.464 ± 0.051 | 0.45 ± 0.055 | 0.436 ± 0.052 | 0.429 ± 0.065
10 µM, coculture fibroblast: HHSteC | 0.782 ± 0.015 | 0.7547 ± 0.004 | 0.735 ± 0.0025 | 0.701 ± 0.0082 | 0.691 ± 0.013 | 0.712 ± 0.015 | 0.65 ± 0.014 | 0.634 ± 0.015 | 0.578 ± 0.014
10 µM, coculture fibroblast: HMF | 0.7078 ± 0.0037 | 0.642 ± 0.03 | 0.598 ± 0.044 | 0.545 ± 0.076 | 0.532 ± 0.075 | 0.498 ± 0.08 | 0.494 ± 0.072 | 0.48 ± 0.062 | 0.475 ± 0.059
10 µM, coculture fibroblast: HPFa | 0.883 ± 0.037 | 0.822 ± 0.056 | 0.803 ± 0.073 | 0.772 ± 0.073 | 0.76 ± 0.077 | 0.765 ± 0.078 | 0.692 ± 0.082 | 0.66 ± 0.082 | 0.585 ± 0.071
10 µM, coculture fibroblast: HUF | 0.811 ± 0.021 | 0.719 ± 0.019 | 0.668 ± 0.0058 | 0.59 ± 0.011 | 0.5368 ± 0.0046 | 0.5056 ± 0.0026 | 0.483 ± 0.0074 | 0.468 ± 0.008 | 0.467 ± 0.0071
10 µM, coculture fibroblast: Hs5 | 0.74 ± 0.014 | 0.674 ± 0.042 | 0.644 ± 0.056 | 0.574 ± 0.066 | 0.558 ± 0.064 | 0.515 ± 0.064 | 0.51 ± 0.065 | 0.485 ± 0.056 | 0.482 ± 0.054
10 µM, coculture fibroblast: Hs27A | 0.829 ± 0.033 | 0.757 ± 0.053 | 0.732 ± 0.057 | 0.699 ± 0.074 | 0.669 ± 0.072 | 0.715 ± 0.07 | 0.623 ± 0.068 | 0.601 ± 0.058 | 0.527 ± 0.065
10 µM, coculture fibroblast: Hs343T | 0.688 ± 0.013 | 0.614 ± 0.025 | 0.556 ± 0.0091 | 0.499 ± 0.0089 | 0.4758 ± 0.00056 | 0.44 ± 0.0099 | 0.442 ± 0.015 | 0.436 ± 0.025 | 0.445 ± 0.02
10 µM, coculture fibroblast: WS1 | 0.771 ± 0.012 | 0.708 ± 0.031 | 0.669 ± 0.037 | 0.577 ± 0.05 | 0.532 ± 0.041 | 0.501 ± 0.041 | 0.479 ± 0.039 | 0.448 ± 0.049 | 0.429 ± 0.049
100 µM, coculture fibroblast: C12385 | 0.8271 ± 0.0036 | 0.7316 ± 0.0022 | 0.652 ± 0.043 | 0.576 ± 0.031 | 0.52 ± 0.042 | 0.49 ± 0.04 | 0.462 ± 0.049 | 0.429 ± 0.051 | 0.407 ± 0.055
100 µM, coculture fibroblast: H6013 | 0.819 ± 0.0065 | 0.70349 ± 0.00021 | 0.6372 ± 0.0011 | 0.626 ± 0.011 | 0.593 ± 0.006 | 0.5988 ± 0.0053 | 0.56442 ± 0.00017 | 0.5427 ± 0.0052 | 0.505 ± 0.0016
100 µM, coculture fibroblast: H6019 | 0.775 ± 0.027 | 0.682 ± 0.05 | 0.651 ± 0.048 | 0.581 ± 0.061 | 0.537 ± 0.058 | 0.507 ± 0.047 | 0.468 ± 0.051 | 0.439 ± 0.047 | 0.41 ± 0.049
100 µM, coculture fibroblast: H6076 | 0.755 ± 0.027 | 0.633 ± 0.019 | 0.581 ± 0.029 | 0.508 ± 0.086 | 0.481 ± 0.084 | 0.447 ± 0.076 | 0.445 ± 0.077 | 0.434 ± 0.082 | 0.431 ± 0.086
100 µM, coculture fibroblast: H6231 | 0.764 ± 0.065 | 0.671 ± 0.069 | 0.549 ± 0.055 | 0.512 ± 0.08 | 0.465 ± 0.079 | 0.419 ± 0.088 | 0.4 ± 0.088 | 0.371 ± 0.081 | 0.343 ± 0.081
100 µM, coculture fibroblast: HADF | 0.828 ± 0.029 | 0.737 ± 0.053 | 0.674 ± 0.074 | 0.635 ± 0.086 | 0.602 ± 0.088 | 0.599 ± 0.089 | 0.545 ± 0.091 | 0.515 ± 0.095 | 0.471 ± 0.09
100 µM, coculture fibroblast: HCFa | 0.779 ± 0.0093 | 0.689 ± 0.013 | 0.65 ± 0.0096 | 0.613 ± 0.0064 | 0.5798 ± 0.0026 | 0.589 ± 0.006 | 0.5321 ± 0.0018 | 0.519 ± 0.0086 | 0.4731 ± 0.0043
100 µM, coculture fibroblast: HCPF | 0.785 ± 0.023 | 0.688 ± 0.028 | 0.595 ± 0.034 | 0.527 ± 0.035 | 0.476 ± 0.038 | 0.425 ± 0.039 | 0.387 ± 0.031 | 0.363 ± 0.033 | 0.333 ± 0.035
100 µM, coculture fibroblast: HHSteC | 0.832 ± 0.02 | 0.741 ± 0.014 | 0.697 ± 0.0079 | 0.6566 ± 0.0057 | 0.627 ± 0.02 | 0.629 ± 0.0071 | 0.569 ± 0.014 | 0.539 ± 0.018 | 0.489 ± 0.019
100 µM, coculture fibroblast: HMF | 0.839 ± 0.054 | 0.728 ± 0.052 | 0.59 ± 0.027 | 0.532 ± 0.045 | 0.479 ± 0.043 | 0.436 ± 0.038 | 0.4 ± 0.033 | 0.372 ± 0.031 | 0.355 ± 0.027
100 µM, coculture fibroblast: HPFa | 0.856 ± 0.084 | 0.837 ± 0.042 | 0.85 ± 0.072 | 0.81 ± 0.085 | 0.789 ± 0.087 | 0.786 ± 0.065 | 0.712 ± 0.06 | 0.686 ± 0.067 | 0.612 ± 0.059
100 µM, coculture fibroblast: HUF | 0.8406 ± 0.004 | 0.7135 ± 0.0012 | 0.678 ± 0.013 | 0.6 ± 0.018 | 0.549 ± 0.033 | 0.514 ± 0.031 | 0.487 ± 0.042 | 0.462 ± 0.044 | 0.449 ± 0.049
100 µM, coculture fibroblast: Hs5 | 0.7776 ± 0.0023 | 0.692 ± 0.019 | 0.607 ± 0.05 | 0.532 ± 0.06 | 0.5 ± 0.061 | 0.455 ± 0.064 | 0.442 ± 0.052 | 0.413 ± 0.056 | 0.398 ± 0.052
100 µM, coculture fibroblast: Hs27A | 0.7977 ± 0.006 | 0.7144 ± 0.0025 | 0.667 ± 0.013 | 0.6398 ± 0.0016 | 0.616 ± 0.0078 | 0.662 ± 0.021 | 0.601 ± 0.032 | 0.592 ± 0.031 | 0.538 ± 0.032
100 µM, coculture fibroblast: Hs343T | 0.7506 ± 0.0033 | 0.636 ± 0.014 | 0.528 ± 0.025 | 0.465 ± 0.037 | 0.434 ± 0.027 | 0.4 ± 0.027 | 0.377 ± 0.034 | 0.366 ± 0.018 | 0.364 ± 0.018
100 µM, coculture fibroblast: WS1 | 0.821 ± 0.015 | 0.742 ± 0.025 | 0.692 ± 0.012 | 0.621 ± 0.022 | 0.573 ± 0.021 | 0.55 ± 0.013 | 0.524 ± 0.0097 | 0.4855 ± 0.00061 | 0.469 ± 0.0064
